Test results: US20070055459A1 (Harvard, published 2007)
No constants are given. Whether binding was seen depends on the method and setting. Some results given as binding are weak or reduced against the parent protein; the word gives no strength.

Target: T1, HSV UL42 (processivity factor of HSV DNA polymerase) (herpes simplex virus (HSV)) (UniProt P10226)
T1 sequence: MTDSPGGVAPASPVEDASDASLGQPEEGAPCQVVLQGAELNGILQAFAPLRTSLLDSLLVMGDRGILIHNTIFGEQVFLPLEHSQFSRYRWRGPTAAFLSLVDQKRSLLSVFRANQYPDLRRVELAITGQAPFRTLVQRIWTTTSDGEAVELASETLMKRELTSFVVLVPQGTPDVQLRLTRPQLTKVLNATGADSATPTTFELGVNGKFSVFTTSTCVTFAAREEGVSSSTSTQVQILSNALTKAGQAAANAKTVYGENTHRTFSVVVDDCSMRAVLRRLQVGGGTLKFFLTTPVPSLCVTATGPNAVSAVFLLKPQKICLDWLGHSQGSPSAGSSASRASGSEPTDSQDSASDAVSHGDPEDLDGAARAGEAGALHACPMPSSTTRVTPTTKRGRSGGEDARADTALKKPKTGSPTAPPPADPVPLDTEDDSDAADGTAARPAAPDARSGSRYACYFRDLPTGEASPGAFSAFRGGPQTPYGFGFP
Experiment: ITC

For DDVAARLRAAGFGAVGAGATAEETRRMLHRAFDTLA [Peptide A (C-terminal 36 amino acid residues of HSV DNA polymerase, Pol residues 1200-1235)], the binding was “binds”.

With ATAEETRRMLHRAFDTLA [Peptide E (last 18 residues of HSV DNA polymerase, Pol residues 1218-1235)] the binding was “binds”.
